Test results from PubChem BioAssay AID2458 (Broad Institute, 2010).
Some of the results follow. The source made no clear call on entries shown without one.

Chains of the proteins cited; added tags and fusions are not shown.
UniProt P08659, whole entry, looked up: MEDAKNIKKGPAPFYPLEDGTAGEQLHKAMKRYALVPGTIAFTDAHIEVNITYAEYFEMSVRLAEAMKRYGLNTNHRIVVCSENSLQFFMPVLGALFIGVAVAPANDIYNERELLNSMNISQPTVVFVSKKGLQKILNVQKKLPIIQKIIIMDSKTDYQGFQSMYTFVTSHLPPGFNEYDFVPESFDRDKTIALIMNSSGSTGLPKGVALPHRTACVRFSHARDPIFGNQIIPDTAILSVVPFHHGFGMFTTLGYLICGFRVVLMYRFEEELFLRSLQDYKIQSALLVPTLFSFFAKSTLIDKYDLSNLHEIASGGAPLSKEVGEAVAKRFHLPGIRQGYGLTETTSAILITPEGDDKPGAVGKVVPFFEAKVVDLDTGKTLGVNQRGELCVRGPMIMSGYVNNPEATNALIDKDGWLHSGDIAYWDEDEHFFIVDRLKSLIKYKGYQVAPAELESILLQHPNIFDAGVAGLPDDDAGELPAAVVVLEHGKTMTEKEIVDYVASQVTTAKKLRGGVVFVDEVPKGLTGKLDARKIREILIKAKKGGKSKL

Biological target: Luciferin 4-monooxygenase (Photinus pyralis) (UniProt P08659)
Assay: Photinus pyralis luciferase translation or activity inhibitors, H4 neuroglioma cells, confirmatory dose response (AID 2458)
Details: luciferase luminescence, at 1.2 µM (top of the series)

## O=C(/C=C\Nc1ccc2c(c1)OCO2)c1ccccn1
  activity change, negative = inhibition: -37.3%
